According to the supplement of paper PMC7889204:
Where a name gives a salt, the structure may show the parent alone. Some of the results follow. Single values are uncertain, as repeats are few or missing.

system: C6; assay: cell mass (Coomassie absorbance) after combination of library compound with HMBA, relative to vehicle control (fraction); higher = more remaining cells (less growth inhibition)

Row | SMILES | cell mass
1 | COC1=C2C[C@@H](C)C[C@H](OC)[C@H](O)[C@@H](C)/C=C(\C)[C@H](OC(N)=O)[C@@H](OC)/C=C\C=C(/C)C(=O)NC(=CC1=O)C2=O [Geldanamycin] + CC(=O)NCCCCCCNC(C)=O [hexamethylene bisacetamide] | 0.384
2 | O=C1Nc2ccccc2/C1=C1/Nc2ccccc2C1=O [Indirubin] + CC(=O)NCCCCCCNC(C)=O [hexamethylene bisacetamide] | 0.367
3 | N#CC1(c2ccc(NC(=O)c3cccnc3NCc3ccncc3)cc2)CCCC1 [Apatinib] + CC(=O)NCCCCCCNC(C)=O [hexamethylene bisacetamide] | 0.989
4 | CCCS(=O)(=O)Nc1ccc(F)c(C(=O)c2c[nH]c3ncc(-c4ccc(Cl)cc4)cc23)c1F + CC(=O)NCCCCCCNC(C)=O [hexamethylene bisacetamide] | 0.341
5 | CN(C)Cc1cccc(N/C(=C2\C(=O)Nc3cc(C(N)=O)ccc32)c2ccccc2)c1 + CC(=O)NCCCCCCNC(C)=O [hexamethylene bisacetamide] | 0.797
6 | CN(C)C1CCN(C(=O)c2ccc(NC(=O)Nc3ccc(-c4nc(N5CCOCC5)nc(N5CCOCC5)n4)cc3)cc2)CC1 + CC(=O)NCCCCCCNC(C)=O [hexamethylene bisacetamide] | 0.463
7 | CCN(CC)Cc1ccc2cc(COC(=O)Nc3ccc(C(=O)NO)cc3)ccc2c1 + CC(=O)NCCCCCCNC(C)=O [hexamethylene bisacetamide] | 0.349
8 | Cn1cc(/C=C/C(=O)c2cccc(F)c2)cc1/C=C/C(=O)NO + CC(=O)NCCCCCCNC(C)=O [hexamethylene bisacetamide] | 0.757
9 | c1ccc2c(-c3cnn4cc(-c5ccc(N6CCNCC6)cc5)cnc34)ccnc2c1 + CC(=O)NCCCCCCNC(C)=O [hexamethylene bisacetamide] | 0.327
10 | O=S(=O)(c1cccc2cnccc12)N1CCCNCC1 [Fasudil HCl] + CC(=O)NCCCCCCNC(C)=O [hexamethylene bisacetamide] | 0.617
11 | C[C@H](NC(=O)Cc1cc(F)cc(F)c1)C(=O)N[C@@H]1C(=O)N(C)c2ccccc2-c2ccccc21 + CC(=O)NCCCCCCNC(C)=O [hexamethylene bisacetamide] | 0.602
12 | CCNC(=O)c1cc2c(-c3cc(OCCN4CCCC4)c(Cl)cc3Cl)nc(N)nc2s1 + CC(=O)NCCCCCCNC(C)=O [hexamethylene bisacetamide] | 0.57
13 | CCN1CCN(Cc2ccc(-c3cc4c(N[C@H](C)c5ccccc5)ncnc4[nH]3)cc2)CC1 + CC(=O)NCCCCCCNC(C)=O [hexamethylene bisacetamide] | 0.715
14 | Cc1nc(N)sc1-c1ccnc(Nc2ccc(N3CCOCC3)cc2)n1 + CC(=O)NCCCCCCNC(C)=O [hexamethylene bisacetamide] | 0.238
15 | Nc1ncnc2c1c(-c1cnc3[nH]ccc3c1)nn2C1CCCC1 + CC(=O)NCCCCCCNC(C)=O [hexamethylene bisacetamide] | 0.242
16 | Nc1nc(Nc2ccc(S(N)(=O)=O)cc2)nn1C(=O)c1c(F)cccc1F + CC(=O)NCCCCCCNC(C)=O [hexamethylene bisacetamide] | 0.414
17 | Cc1cccc(-c2nn3c(c2-c2ccnc4ccc(C(N)=O)cc24)CCC3)n1 + CC(=O)NCCCCCCNC(C)=O [hexamethylene bisacetamide] | 0.808
18 | O=C(CN1C(=O)C2(CCCC2)NC[C@H]1c1cc(F)cc(F)c1)Nc1ccc2c(c1)C[C@@]1(C2)C(=O)Nc2ncccc21 [MK 3207 hydrochloride] + CC(=O)NCCCCCCNC(C)=O [hexamethylene bisacetamide] | 0.692
19 | Cn1cncc1[C@@](N)(c1ccc(Cl)cc1)c1ccc2c(c1)c(-c1cccc(Cl)c1)cc(=O)n2C [Tipifarnib] + CC(=O)NCCCCCCNC(C)=O [hexamethylene bisacetamide] | 0.546
20 | Cc1cnc(Nc2ccc(N3CCN(C)CC3)cc2)nc1Nc1cccc(S(=O)(=O)NC(C)(C)C)c1 + CC(=O)NCCCCCCNC(C)=O [hexamethylene bisacetamide] | 0.738
21 | N#CCNC(=O)c1ccc(-c2ccnc(Nc3ccc(N4CCOCC4)cc3)n2)cc1 + CC(=O)NCCCCCCNC(C)=O [hexamethylene bisacetamide] | 0.58

2 records drawn at random from the list so far:
Row | SMILES | cell mass
9 | c1ccc2c(-c3cnn4cc(-c5ccc(N6CCNCC6)cc5)cnc34)ccnc2c1 + CC(=O)NCCCCCCNC(C)=O [hexamethylene bisacetamide] | 0.327
5 | CN(C)Cc1cccc(N/C(=C2\C(=O)Nc3cc(C(N)=O)ccc32)c2ccccc2)c1 + CC(=O)NCCCCCCNC(C)=O [hexamethylene bisacetamide] | 0.797
